This is one part of the list.
Compound: CC1Cc2ccccc2N1C(=O)C1CCCN(C1)C(=O)CCl (mixture of isomers) [TRIM25 ligand 11 (diastereomer mixture)]
Test: probe-labelled cysteine peptide fold change vs DMSO (competition) (log2 fold change); higher = less target engagement (more negative = stronger competition)
Conditions: THP-1, incubation time: 4 h
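Note: competitive chemoproteomic profiling in live THP-1 cells with an iodoacetamide desthiobiotin (IA-DTB) probe, comparing probe-labelled peptide intensities in compound-treated cells against DMSO-treated controls.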

Amino acid sequences for entries named in this document (tags omitted). A change or cut given only in a name is not applied to a line headed by its entry.
UniProt O75592: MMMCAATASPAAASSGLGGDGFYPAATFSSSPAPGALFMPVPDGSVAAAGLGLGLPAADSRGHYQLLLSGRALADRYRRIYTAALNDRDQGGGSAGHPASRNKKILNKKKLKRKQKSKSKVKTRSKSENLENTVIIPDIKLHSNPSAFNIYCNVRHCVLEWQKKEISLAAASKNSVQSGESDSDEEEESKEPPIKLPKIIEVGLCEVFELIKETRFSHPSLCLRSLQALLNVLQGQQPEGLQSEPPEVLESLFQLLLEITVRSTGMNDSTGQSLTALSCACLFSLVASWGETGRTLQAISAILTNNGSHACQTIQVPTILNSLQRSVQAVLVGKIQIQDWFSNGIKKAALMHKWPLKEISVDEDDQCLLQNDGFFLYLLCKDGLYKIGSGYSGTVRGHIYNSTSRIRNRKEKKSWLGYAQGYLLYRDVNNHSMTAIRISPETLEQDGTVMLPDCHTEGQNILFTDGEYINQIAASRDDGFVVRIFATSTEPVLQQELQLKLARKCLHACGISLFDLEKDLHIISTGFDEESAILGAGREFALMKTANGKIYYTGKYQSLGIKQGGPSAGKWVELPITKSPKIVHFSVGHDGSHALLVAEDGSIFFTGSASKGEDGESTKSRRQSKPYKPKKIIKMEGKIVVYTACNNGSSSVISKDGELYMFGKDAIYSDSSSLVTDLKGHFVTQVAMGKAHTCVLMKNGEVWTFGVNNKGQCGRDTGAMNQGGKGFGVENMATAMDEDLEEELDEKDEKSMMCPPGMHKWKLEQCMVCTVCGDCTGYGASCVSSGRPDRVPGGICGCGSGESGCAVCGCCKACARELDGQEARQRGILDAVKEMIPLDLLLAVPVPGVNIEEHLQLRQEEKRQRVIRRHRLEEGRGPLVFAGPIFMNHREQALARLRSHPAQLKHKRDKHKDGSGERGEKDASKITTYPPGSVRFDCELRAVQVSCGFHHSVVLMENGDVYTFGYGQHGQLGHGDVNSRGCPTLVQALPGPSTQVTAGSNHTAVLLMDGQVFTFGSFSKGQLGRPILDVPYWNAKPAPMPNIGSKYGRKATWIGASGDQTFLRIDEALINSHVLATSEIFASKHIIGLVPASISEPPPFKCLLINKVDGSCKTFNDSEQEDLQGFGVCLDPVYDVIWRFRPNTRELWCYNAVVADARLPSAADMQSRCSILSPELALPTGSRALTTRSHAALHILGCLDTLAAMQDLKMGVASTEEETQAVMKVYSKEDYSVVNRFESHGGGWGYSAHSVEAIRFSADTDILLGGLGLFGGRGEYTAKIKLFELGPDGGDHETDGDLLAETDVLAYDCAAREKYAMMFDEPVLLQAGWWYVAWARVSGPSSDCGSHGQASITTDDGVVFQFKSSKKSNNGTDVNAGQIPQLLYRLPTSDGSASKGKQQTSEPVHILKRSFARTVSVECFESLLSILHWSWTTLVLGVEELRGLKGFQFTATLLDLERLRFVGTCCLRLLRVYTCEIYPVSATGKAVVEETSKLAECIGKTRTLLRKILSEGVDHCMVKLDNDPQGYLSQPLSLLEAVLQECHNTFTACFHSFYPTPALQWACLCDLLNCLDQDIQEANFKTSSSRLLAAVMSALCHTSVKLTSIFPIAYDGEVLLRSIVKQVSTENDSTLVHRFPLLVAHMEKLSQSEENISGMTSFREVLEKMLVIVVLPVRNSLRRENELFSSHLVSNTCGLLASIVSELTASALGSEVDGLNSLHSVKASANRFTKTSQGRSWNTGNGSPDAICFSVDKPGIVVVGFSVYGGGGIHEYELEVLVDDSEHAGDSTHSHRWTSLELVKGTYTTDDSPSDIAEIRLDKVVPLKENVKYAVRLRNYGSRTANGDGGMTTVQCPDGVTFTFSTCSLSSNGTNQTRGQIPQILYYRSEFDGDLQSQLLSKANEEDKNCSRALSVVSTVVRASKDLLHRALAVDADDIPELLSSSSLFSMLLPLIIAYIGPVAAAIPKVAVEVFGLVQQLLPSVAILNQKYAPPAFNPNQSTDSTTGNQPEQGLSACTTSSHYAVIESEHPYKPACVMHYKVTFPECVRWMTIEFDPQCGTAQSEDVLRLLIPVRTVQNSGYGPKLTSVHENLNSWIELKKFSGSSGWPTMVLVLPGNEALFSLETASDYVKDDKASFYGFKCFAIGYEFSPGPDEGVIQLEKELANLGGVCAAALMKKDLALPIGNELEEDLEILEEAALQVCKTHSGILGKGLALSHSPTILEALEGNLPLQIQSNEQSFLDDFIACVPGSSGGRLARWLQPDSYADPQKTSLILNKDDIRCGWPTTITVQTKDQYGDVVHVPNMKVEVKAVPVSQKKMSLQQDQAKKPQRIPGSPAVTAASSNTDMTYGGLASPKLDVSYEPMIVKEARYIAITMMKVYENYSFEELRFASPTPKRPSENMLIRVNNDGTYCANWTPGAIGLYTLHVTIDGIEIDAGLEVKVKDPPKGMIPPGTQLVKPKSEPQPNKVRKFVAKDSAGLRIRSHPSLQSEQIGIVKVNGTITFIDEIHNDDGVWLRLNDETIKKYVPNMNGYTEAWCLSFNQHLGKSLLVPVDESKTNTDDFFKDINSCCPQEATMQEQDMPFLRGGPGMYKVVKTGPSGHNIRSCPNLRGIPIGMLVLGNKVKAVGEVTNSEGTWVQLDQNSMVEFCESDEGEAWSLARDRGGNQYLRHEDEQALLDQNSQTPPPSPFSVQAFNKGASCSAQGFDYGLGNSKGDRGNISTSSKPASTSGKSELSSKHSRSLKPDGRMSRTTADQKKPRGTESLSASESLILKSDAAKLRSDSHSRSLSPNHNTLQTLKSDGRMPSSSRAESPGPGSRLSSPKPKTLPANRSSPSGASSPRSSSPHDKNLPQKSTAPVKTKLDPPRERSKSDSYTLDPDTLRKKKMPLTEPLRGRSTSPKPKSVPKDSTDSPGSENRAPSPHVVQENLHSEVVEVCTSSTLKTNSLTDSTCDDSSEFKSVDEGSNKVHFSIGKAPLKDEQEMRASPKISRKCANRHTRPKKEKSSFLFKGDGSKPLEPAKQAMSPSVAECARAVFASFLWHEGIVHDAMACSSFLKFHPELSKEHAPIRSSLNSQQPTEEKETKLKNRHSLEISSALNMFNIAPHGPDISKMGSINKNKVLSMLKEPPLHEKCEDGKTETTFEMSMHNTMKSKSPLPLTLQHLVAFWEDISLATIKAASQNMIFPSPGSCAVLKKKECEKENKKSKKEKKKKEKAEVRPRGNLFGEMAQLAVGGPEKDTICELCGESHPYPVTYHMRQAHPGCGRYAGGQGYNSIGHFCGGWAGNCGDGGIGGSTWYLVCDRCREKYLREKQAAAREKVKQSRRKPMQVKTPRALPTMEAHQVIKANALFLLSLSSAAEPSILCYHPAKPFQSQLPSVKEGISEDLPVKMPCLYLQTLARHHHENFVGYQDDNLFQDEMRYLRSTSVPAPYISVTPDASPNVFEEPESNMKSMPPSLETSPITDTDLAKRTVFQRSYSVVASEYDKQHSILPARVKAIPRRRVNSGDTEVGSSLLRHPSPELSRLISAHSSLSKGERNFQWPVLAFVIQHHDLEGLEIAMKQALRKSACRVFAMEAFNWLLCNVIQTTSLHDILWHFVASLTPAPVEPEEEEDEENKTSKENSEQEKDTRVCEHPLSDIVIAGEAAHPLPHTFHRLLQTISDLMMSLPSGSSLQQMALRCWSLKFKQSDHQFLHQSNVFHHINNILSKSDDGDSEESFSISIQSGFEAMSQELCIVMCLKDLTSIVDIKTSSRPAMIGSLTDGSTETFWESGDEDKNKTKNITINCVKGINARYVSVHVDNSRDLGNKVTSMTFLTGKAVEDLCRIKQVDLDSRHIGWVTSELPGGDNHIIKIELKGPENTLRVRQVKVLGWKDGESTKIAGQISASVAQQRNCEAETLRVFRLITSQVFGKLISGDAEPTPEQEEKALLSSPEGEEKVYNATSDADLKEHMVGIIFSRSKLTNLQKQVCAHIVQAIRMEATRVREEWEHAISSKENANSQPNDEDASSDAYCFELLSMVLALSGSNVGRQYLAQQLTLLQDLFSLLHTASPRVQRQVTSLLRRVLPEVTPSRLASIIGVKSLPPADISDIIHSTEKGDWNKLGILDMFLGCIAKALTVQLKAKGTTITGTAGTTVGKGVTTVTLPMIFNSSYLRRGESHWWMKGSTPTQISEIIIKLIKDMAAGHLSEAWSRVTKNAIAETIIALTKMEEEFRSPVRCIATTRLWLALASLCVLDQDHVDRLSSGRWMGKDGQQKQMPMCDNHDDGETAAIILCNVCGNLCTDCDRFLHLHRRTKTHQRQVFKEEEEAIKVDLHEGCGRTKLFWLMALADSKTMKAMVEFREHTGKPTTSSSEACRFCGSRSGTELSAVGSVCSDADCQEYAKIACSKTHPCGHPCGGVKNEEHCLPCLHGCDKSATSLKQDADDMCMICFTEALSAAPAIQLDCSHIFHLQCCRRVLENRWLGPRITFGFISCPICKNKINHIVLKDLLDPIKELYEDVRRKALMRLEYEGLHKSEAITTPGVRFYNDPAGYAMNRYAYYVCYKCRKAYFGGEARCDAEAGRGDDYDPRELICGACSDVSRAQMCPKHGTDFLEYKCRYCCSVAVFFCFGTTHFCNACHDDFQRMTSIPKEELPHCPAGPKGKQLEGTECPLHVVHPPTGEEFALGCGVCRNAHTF
UniProt Q9Y217: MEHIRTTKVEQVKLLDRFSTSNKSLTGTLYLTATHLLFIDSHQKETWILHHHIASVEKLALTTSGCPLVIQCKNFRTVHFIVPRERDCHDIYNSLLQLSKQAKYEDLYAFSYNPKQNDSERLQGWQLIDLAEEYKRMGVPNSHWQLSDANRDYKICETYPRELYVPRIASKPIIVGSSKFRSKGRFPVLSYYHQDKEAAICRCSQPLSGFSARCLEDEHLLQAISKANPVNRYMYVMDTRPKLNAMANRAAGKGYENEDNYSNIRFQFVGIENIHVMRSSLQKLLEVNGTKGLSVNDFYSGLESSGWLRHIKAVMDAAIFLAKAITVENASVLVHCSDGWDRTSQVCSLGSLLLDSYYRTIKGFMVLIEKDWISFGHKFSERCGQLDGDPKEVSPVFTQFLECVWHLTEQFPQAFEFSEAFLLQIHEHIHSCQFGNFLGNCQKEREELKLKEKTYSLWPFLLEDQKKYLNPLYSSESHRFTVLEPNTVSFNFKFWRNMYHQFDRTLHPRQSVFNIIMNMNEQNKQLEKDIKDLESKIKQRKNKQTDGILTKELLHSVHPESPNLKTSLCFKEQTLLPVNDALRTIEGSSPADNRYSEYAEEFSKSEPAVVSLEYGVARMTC
UniProt Q9Y6C9: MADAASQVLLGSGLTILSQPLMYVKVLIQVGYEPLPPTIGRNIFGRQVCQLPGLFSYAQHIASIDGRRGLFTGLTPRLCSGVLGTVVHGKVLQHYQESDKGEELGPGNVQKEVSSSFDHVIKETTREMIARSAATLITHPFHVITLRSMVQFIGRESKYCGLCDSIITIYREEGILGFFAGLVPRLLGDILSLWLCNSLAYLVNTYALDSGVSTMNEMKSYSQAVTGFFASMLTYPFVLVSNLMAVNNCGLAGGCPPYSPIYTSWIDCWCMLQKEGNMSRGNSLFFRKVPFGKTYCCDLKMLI
UniProt P20591: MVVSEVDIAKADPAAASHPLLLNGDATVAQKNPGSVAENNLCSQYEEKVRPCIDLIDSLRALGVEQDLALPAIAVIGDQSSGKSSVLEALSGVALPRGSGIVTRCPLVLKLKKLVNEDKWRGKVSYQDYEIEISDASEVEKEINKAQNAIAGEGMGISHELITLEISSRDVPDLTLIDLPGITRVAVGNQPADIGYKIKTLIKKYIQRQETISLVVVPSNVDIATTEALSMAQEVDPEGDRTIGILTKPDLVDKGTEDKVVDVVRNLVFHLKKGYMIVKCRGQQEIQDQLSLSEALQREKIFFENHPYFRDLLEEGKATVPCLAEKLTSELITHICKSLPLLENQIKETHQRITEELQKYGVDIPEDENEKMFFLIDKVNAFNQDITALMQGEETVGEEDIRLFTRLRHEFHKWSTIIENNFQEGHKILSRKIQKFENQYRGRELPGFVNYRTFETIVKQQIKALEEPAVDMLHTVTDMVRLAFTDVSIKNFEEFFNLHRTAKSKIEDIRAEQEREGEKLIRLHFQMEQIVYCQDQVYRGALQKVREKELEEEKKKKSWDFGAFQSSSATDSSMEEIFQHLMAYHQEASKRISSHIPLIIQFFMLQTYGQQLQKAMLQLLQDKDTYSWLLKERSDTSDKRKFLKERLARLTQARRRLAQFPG

Target | probe-labelled cysteine peptide fold change (10 µM) | probe-labelled cysteine peptide fold change (50 µM)
MTERF4_Q7Z6M4_69_SNNYVQEPECR (UniProt Q7Z6M4) | 0.00817 | -0.179
MTHFD1L_Q6UB35_198_GDAHECFVSPVAK (UniProt Q6UB35) | 0.0264 | 0.007
MSH2_P43246_641_HACVEVQDEIAFIPNDVYFEK (UniProt P43246) | 0.0508 | 0.0552
MYCBP2_O75592_4406+4413_NEEHCLPCLHGCDK (UniProt O75592) | -0.0669 | 
MTMR6_Q9Y217_88_DCHDIYNSLLQLSK (UniProt Q9Y217) | -0.0013 | -0.0394
MTCH2_Q9Y6C9_49_QVCQLPGLFSYAQHIASIDGRR (UniProt Q9Y6C9) | -0.283 | -0.233
MRPL45_Q9BRJ2_80_SIHLACTAGIFDAYVPPEGDAR (UniProt Q9BRJ2) | 0.173 | 0.0257
MYCBP2_O75592_645_IVVYTACNNGSSSVISK (UniProt O75592) | -0.0457 | 0.123
MSH6_P52701_783_QWLCAPLCNHYAINDR (UniProt P52701) | 0.107 | 0.0685
MRPL53_Q96EL3_63_HDGSEPCVDVLFGDGHR (UniProt Q96EL3) | 0.0429 | 0.184
MTREX_P42285_650_YCLPFLQPGR (UniProt P42285) | 0.0675 | 0.187
MYCBP2_O75592_4318_QVFKEEEEAIKVDLHEGCGR (UniProt O75592) | -0.114 | -0.119
MTREX_P42285_983_LEIDEETYLSSFKPHLMDVVYTWATGATFAHICK (UniProt P42285) | 0.115 | -0.0469
MX1_P20591_52_VRPCIDLIDSLR (UniProt P20591) | 0.0157 | 0.0645

Reference: the supplement of paper PMC12067093, “Discovery and optimisation of a covalent ligand for TRIM25 and its application to targeted protein ubiquitination” (Chemical Science, 2025)
